Among the data in publication PMC8924544 are binding values, retold here.

Protein sequences, listed by entry. Tags and fused reporters are not part of them.
UniProt Q94BT6: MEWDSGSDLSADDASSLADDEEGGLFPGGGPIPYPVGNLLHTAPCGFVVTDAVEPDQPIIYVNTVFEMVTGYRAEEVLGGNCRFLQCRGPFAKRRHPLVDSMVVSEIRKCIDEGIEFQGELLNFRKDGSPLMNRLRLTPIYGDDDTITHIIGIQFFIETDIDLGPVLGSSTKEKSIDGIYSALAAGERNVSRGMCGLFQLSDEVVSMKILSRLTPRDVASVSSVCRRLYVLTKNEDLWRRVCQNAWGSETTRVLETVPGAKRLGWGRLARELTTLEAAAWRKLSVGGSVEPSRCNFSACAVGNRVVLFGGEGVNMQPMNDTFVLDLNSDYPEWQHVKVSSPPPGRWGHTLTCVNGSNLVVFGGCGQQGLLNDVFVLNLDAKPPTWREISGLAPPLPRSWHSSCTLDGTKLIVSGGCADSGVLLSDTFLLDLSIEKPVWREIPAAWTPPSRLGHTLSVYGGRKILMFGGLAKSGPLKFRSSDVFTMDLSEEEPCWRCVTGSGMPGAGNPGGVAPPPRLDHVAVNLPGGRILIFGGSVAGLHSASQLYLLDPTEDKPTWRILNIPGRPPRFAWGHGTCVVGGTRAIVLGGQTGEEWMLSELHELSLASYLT

For assay [1], the target named is T1, OPEN STOMATA 1 (OST1), Myc-tagged (Arabidopsis thaliana) (UniProt Q940H6).
T1 sequence: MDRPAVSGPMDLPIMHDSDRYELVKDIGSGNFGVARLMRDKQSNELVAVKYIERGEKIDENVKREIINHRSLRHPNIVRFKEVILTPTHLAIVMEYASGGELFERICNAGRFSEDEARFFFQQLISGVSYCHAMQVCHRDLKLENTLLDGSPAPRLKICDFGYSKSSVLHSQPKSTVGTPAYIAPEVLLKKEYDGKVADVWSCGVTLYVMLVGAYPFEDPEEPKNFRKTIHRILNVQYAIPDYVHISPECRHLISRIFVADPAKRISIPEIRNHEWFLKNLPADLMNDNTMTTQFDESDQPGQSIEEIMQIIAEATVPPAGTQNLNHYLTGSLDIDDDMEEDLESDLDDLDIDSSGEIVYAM
Nature of the assay: co-IP; HA- and Myc-tagged proteins co-transfected in Arabidopsis Col-0 cell suspension protoplasts, harvested 18 h post-transfection; extract immunoprecipitated with anti-Myc antibody (9E10) and Protein G-Sepharose, 4°C; blots probed with anti-HA-POD, then anti-c-Myc.

The target in assay [2] is T2, TIMING OF CAB2 EXPRESSION 1 (TOC1), epitope-tagged (Arabidopsis thaliana) (UniProt Q9LKL2).
T2 sequence: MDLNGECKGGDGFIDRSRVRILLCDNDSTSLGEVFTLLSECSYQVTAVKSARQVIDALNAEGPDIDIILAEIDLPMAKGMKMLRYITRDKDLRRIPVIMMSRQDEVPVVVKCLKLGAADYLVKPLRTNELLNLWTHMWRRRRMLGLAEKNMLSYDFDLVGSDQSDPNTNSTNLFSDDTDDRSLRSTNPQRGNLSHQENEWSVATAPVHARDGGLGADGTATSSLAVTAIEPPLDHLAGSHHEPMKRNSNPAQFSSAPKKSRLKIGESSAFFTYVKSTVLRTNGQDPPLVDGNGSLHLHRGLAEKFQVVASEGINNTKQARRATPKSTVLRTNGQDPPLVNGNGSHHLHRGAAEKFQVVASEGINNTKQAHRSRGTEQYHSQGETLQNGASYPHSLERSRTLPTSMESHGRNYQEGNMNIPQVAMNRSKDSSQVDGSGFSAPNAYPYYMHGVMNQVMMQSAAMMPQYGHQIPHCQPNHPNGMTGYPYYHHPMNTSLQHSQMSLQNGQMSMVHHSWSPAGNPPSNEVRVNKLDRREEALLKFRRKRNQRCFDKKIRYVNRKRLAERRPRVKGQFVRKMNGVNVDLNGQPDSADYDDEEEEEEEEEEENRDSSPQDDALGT
Described as above.

Results are given in words; binding and its absence hold for the method and conditions named. In cells and extracts the contact can be indirect. Some binding calls cover weakened binding; strength is not graded here. Where a sequence is shown, tags or fusion partners need not be part of it.

As to “ZEITLUPE (ZTL), HA-tagged (from UniProt Q94BT6 1-609)”, the binding result in assay [1] and in assay [2] was “binds” throughout.
